Laboratory results taken from patent publication US5646188A, “Polyamine derivatives of 1-aminoindan” (priority 1995, dated 1997).
“And” between values parts separate entries of the source, which are not always exact repeats. Identical values can stand only once. At least one read-out could not be matched to a standard name with certainty.

Test system: pyramidal neurons throughout the CA1 layer of the anterior hippocampus
Assay: Global Brain Ischemia In Gerbils
Type: in vivo, mongolian gerbils
Details: 10.0 mg/kg ip, 3 daily injections; 14 days post-ischemia; fraction of hippocampi protected
Protocol: Male mongolian gerbils, aged 2.5-5 months, housed 4-8 in a cage, were supplied freely with food and water and maintained at 24° C. with a 12 hour day/night cycle.
For surgery the animals were anesthetized with halothane (1.5% in 100% O2) and the common carotid arteries exposed bilaterally through a midline ventral neck incision. Each artery was clamped for 5 minutes with aneurysm clips to produce global brain ischemia. The anesthesia was discontinued upon clamping. After 5 minutes the clamps were removed and the wound closed with skin clips.
For treatment, the test compound or vehicle was injected intra-peritoneally(ip) in a volume of 50 microlitres of solvent per 10 g body weight. The first injection was given two minutes after clamp removal, and thereafter daily for the next 2 post-operative days (total of 3 injections).
Seven groups each of 4-8 animals were compared:
I. Control; (sham- or unoperated and saline treated),
II. Vehicle treated, unoperated (when solvent is other than saline),
III. Ischemia--untreated or saline treated),
IV. Ischemia--vehicle treated (when solvent is other than saline),
V. Ischemia--Test compound treated, one sub-group per concentration tested,
VI. Ischemia and pentobarbital (40 mg/kg) as positive control). […]

Row | Compound | PERCENT PROTECTION
1 | NCCCCN(CCCCN)C1CCc2ccccc21 (racemic) [Compound 2711, racemic N,N-di(4-amino-n-butyl)-1-aminoindan] | 70%
2 | NCCCCN(CCCCN)C1CCCc2ccccc21 (centres unmarked) [Compound 2728, N,N-di(4-amino-n-butyl)-1-amino-1,2,3,4-tetrahydronaphthalene] | 80% and 40%
